# Literature values as cited in patent publication US11660375B2, “Product and method for the treatment of bioprosthetic tissues” (Epygon, priority 2017, dated 2023).
# Details: Glutaraldehyde-crosslinked cusps
compound,measurement,value
"CCO [80% Ethanol, Ethanol]",extraction of cholesterol and phospholipids,almost all
